These are yes or no findings as the source states them, for the method shown. In cells and extracts the contact can be indirect. These calls come from enrichment with a bait or labelling near it, and not all partners need be listed. Sequences can lack the tags named with a protein.
Target: γb-3xFlag (BSMV γb with a C-terminal 3xFlag epitope, expressed from RNAγ_(γb-3xFlag)) (Barley stripe mosaic virus)
Test: affinity purification with mass spectrometry; total protein of BSMV-infected N. benthamiana leaves at 3 dpi, anti-FLAG-agarose beads, elution with FLAG peptides, LC-MS/MS; untagged virus as negative control

Row | Binder | binding
1 | BSMV TGB1 (untagged, made during BSMV infection) (protein, UniProt P04867 1-528) MDMTKTVEEKKTNGTDSVKGVFENSTIPKVPTGQEMGGDGSSTSKLKETLKVADQTPLSVDNGAKSKLDSSDRQVPGVADQTPLSVDNGAKSKLDSSDRQVPGPELKPNVKKSKKKRIQKPAQPSGPNDLKGGTKGSSQVGENVSENYTGISKEAAKQKQKTPKSVKMQSNLADKFKANDTRRSELINKFQQFVHETCLKSDFEYTGRQYFRARSNFFEMIKLASLYDKHLKECMARACTLERERLKRKLLLVRALKPAVDFLTGIISGVPGSGKSTIVRTLLKGEFPAVCALANPALMNDYSGIEGVYGLDDLLLSAVPITSDLLIIDEYTLAESAEILLLQRRLRASMVLLVGDVAQGKATTASSIEYLTLPVIYRSETTYRLGQETASLCSKQGNRMVSKGGRDTVIITDYDGETDETEKNIAFTVDTVRDVKDCGYDCALAIDVQGKEFDSVTLFLRNEDRKALADKHLRLVALSRHKSKLIIRADAEIRQAFLTGDIDLSSKASNSHRYSAKPDEDHSWFKAK | binds
2 | BSMV coat protein (made during BSMV infection) (protein, UniProt P04866 1-198) MPNVSLTAKGGGHYIEDQWDTQVVEAGVFDDWWVHVEAWNKFLDNLRGINFSVASSRSQVAEYLAALDRDLPADVDRRFAGARGQIGSPNYLPAPKFFRLDKRTIAELTRLSRLTDQPHNNRDIELNRAKRATTNPSPPAQAPSENLTLRDVQPLKDSALHYQYVLIDLQSARLPVYTRKTFERELALEWIIPDAEEA | binds
